# Measurements from PubChem BioAssay AID529 (NMMLSC, 2006).
# Chains of the proteins cited; added tags and fusions are not shown.
# UniProt P13612, whole entry, looked up: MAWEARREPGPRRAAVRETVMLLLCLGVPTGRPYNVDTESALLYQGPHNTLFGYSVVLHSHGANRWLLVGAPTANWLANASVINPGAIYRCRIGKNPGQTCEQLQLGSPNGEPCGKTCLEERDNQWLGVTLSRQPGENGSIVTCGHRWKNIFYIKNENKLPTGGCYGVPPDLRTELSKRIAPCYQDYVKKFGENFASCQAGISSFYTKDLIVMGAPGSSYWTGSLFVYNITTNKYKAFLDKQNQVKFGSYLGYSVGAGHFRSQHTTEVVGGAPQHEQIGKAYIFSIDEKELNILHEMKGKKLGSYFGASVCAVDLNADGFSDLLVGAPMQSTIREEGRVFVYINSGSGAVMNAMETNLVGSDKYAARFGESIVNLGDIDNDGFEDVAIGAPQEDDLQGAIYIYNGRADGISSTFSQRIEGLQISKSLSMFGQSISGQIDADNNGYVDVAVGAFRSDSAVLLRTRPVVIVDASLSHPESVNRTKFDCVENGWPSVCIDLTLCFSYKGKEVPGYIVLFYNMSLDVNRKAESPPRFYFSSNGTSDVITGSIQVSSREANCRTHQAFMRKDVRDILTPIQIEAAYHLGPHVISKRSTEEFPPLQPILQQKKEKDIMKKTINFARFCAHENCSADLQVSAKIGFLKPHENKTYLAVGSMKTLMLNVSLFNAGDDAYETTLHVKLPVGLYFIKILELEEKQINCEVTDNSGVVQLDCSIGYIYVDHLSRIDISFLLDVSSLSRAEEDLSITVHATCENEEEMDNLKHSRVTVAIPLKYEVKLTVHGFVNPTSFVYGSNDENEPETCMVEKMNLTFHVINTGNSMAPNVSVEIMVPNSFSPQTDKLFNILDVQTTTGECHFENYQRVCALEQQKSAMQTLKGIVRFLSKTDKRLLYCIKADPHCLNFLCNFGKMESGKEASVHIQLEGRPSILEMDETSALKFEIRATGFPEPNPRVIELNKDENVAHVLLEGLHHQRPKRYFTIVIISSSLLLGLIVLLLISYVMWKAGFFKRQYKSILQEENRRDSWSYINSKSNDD
# Out of some 24,000 compounds screened, about 50 (0.2%) were called active. Inconclusive means that the source gave no clear call. Such entries were picked first, then a sample of the others.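 The calls were made as follows: active = inhibition above 50%; inconclusive = compound itself fluorescent, judged against control cell fluorescence; inactive = the rest.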
# Biological target: Integrin alpha-4 (Homo sapiens) (UniProt P13612)
# Experiment: blockers of LDV-FITC ligand binding on VLA-4 – Jurkat cells, Mn2+ activated, primary screen (AID 529);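 as to inhibition: 0% = Mn2+ stimulated cells lacking compound and 100% = ligand binding without Mn2+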
# Settings: LDV-FITC binding with Mn2+, flow cytometry; hits give high values, screened at 10 µM (by protocol), 100% = Mn2+-driven binding gain fully reversed unless noted
row,Structure (SMILES),inhibition
1,CCn1c2ccccc2c2cc(Nc3cc(C)nc4ncnn34)ccc21,inconclusive
2,CCCC(=O)NC(Nc1ccc(S(=O)(=O)Nc2ncccn2)cc1)(C(=O)OCC)C(F)(F)F (centres undefined),inconclusive
3,Cc1cccc(N2CCN(S(=O)(=O)c3ccc4c(c3)CCC(=O)N4)CC2C)c1 (centres undefined),inconclusive
4,O=C(Cc1c(C(=O)O)[nH]c2ccc(Cl)cc12)Nc1ccc2c(c1)OCCO2,inactive: -17%
5,COc1ccccc1N1CCN(C(=O)CSc2nc3ccccc3c(=O)n2CC2CCCO2)CC1 (centres undefined),inconclusive
6,C=CCn1c(=O)[nH]c2cc(C(=O)N3CCN(c4cccc(Cl)c4)CC3)ccc2c1=O,inconclusive
7,Cc1c(C(=O)N2CCOCC2)[nH]c2c1C(=O)CC(c1ccc(Cl)cc1)C2 (centres undefined),inconclusive
8,COc1ccc(C)cc1NC(=O)CN1CCN(CC(=O)Nc2ccccc2F)CC1,inconclusive
9,OCCCc1nc2n(n1)C(c1ccccc1)C=C(c1ccc(F)cc1)N2 (centres undefined),inconclusive
10,COc1ccc(C)cc1NC(=O)CSc1nnc(-c2ccc(C)cc2)o1,inconclusive
11,O=C(c1ccc2c(=O)n(CC3CCCO3)c(=S)[nH]c2c1)N1CCN(c2ccccc2)CC1 (centres undefined),inconclusive
12,CCc1ccc(-c2nc(CN3CCC(C(=O)NCc4ccco4)CC3)c(C)o2)cc1,inconclusive
13,CCOCCCN1C(=O)CN(C2CCCCC2)C(=O)C1c1ccc(OCC)c(OC)c1 (centres undefined),"inactive: 7% [hits give high values, 100% = Mn2+-driven binding gain fully reversed, screened at 10 µM (by protocol)]"
14,CCCS(=O)(=O)c1cn2cccc(N)c2c1S(=O)(=O)CCC,inactive: -5%
15,COc1ccc(-n2c(C)nc3c(cnn3-c3ccc(Cl)cc3)c2=O)cc1,inconclusive
16,CC(C)(C)OC(=O)N1CCN(c2ccc(NC(=O)c3cc4ccccc4oc3=O)cc2)CC1,inactive: -6.5%
17,CCOC(=O)c1nn(-c2ccc(OC)cc2)c(=O)c2c(NC(=O)c3ccco3)scc12,inactive: -3%
18,O=C(CCc1nc(-c2ccccc2F)no1)NC1CCN(Cc2ccccc2)CC1,inactive: -21%
19,COC(=O)C1Cc2c([nH]c3ccccc23)C(C)N1 (centres undefined),inconclusive
20,Cc1nc(N(C)C)c2sc(=S)n(C)c2n1,inconclusive

row,Structure (SMILES),inhibition
1,Cc1ccc(C)c(NC(=O)Cn2nnc(C(=O)Nc3c(C)cccc3C)c2N)c1,inconclusive
2,CCCCC1(Cc2cccc([N+](=O)[O-])c2)C(=O)N(c2ccccc2)N(c2ccccc2)C1=O,inactive: 26%
3,CCc1ccc(-c2nc(CN3CCC(C(=O)NCc4ccc(F)cc4)CC3)c(C)o2)cc1,inconclusive
4,COc1ccccc1N1C(=O)CC(Sc2nc(C)cc(C)n2)C1=O (centres undefined),inactive: -20.5%
5,CCCOC(=O)CSc1nc(N)c(C#N)c(CC)c1C#N,inactive: -6.5%
6,CC(C(=O)O)C1SC(=O)NC1=O (centres undefined),inactive: -8%
7,CCc1ccccc1N(CC)C(=O)c1cn(CC)c(=O)c2cc(OC)c(OC)cc12,inconclusive
8,N#CCSc1nc2[nH]ncc2c(=O)n1-c1ccccc1Br,inconclusive
9,COc1cccc(Cn2c(-c3nonc3N)nc3ccccc32)c1,inconclusive
10,Cc1ccc(C)c(S(=O)(=O)NC(CC(C)C)C(=O)O)c1 (centres undefined),inactive: -8%
11,COc1ccc2c(c1)CCc1c(C(=O)NCCc3ccc(OC)c(OC)c3)noc1-2,inconclusive
12,O=C(CCCCn1c(=S)[nH]c2ccsc2c1=O)NCc1ccco1,inconclusive
13,CC(C)OCCCNC(=O)Cn1nc(-c2ccccc2)ccc1=O,inactive: -9%
14,O=C(Nc1ccc(Cl)cc1)N(Cc1cccnc1)Cc1ccco1,inactive: 13%
15,O=C(CN1CCN(c2ccc(F)cc2)CC1)c1ccc2c(c1)OCO2,inactive: 13%
16,Cc1n[nH]c(C)c1S(=O)(=O)N1CCCC(C(=O)N2CCc3ccccc32)C1 (centres undefined),inconclusive
17,CC1(C)SC2[C@H](NC(=O)C(NC(=O)N3CCNC3=O)c3ccccc3)C(=O)N2C1C(=O)O (some centres undefined),inactive: -25.5%
18,COC(=O)c1cc2ccsc2n1CC(=O)N1CCCc2ccccc21,inconclusive
19,CCOC(=O)Cc1csc(NC(=O)c2ccc(S(=O)(=O)N3CCCCC3)cc2)n1,inconclusive
20,COc1cc(NC(=O)CN2CC(c3ccccc3)CC2=O)cc(OC)c1 (centres undefined),inconclusive

# Taken from above.
# inhibition, CC(C(=O)O)C1SC(=O)NC1=O (centres undefined) is entered as inactive: -8%
# inhibition, O=C(Nc1ccc(Cl)cc1)N(Cc1cccnc1)Cc1ccco1 is entered as inactive: 13%
# inhibition, Cc1n[nH]c(C)c1S(=O)(=O)N1CCCC(C(=O)N2CCc3ccccc32)C1 (centres undefined) is entered as inconclusive
# inhibition, COc1ccc2c(c1)CCc1c(C(=O)NCCc3ccc(OC)c(OC)c3)noc1-2 is entered as inconclusive
# inhibition, O=C(CN1CCN(c2ccc(F)cc2)CC1)c1ccc2c(c1)OCO2 is entered as inactive: 13%

# Going on with the list:

row,Structure (SMILES),inhibition
1,CC(=O)c1sc(Nc2nc3ccc(F)cc3s2)nc1C,inconclusive
2,CN1CCN(C(=O)c2ccc3c(c2)NC(=O)C(N2CCOCC2)S3)CC1 (centres undefined),inconclusive
3,COC(=O)c1ccccc1NC(=O)CS(=O)(=O)Cc1nc(-c2ccc(C)cc2)oc1C,inconclusive
4,COc1ccc(N(CC(=O)N2CCC(C)CC2)S(=O)(=O)c2c(C)nn(C)c2C)cc1,inconclusive
5,Cc1nnc(SC(=O)N2c3ccccc3Sc3ccccc32)s1,inactive: 4.5%
6,COc1ccccc1-c1nnc(NC(=O)c2ccc(S(=O)(=O)N(C)Cc3ccccc3)cc2)o1,inconclusive
7,CCOc1cccc2cc(-c3csc(NC(=O)CCC(=O)N4CCN(C)CC4)n3)c(=O)oc12,inactive: -36%
8,O=c1cc[nH]c2cc(C(F)(F)F)ccc12,inconclusive
9,CCN(CC)c1ccc(C(=O)n2cnc3ccccc32)cc1,inconclusive
10,CCOC(=O)C1=C(C)Nc2nc(C)nn2C1c1ccc(OC)c(OC)c1 (centres undefined),inconclusive
11,Cc1ccc(NC(=O)C2CCCN(S(=O)(=O)c3cccs3)C2)cc1 (centres undefined),active: 67.5%
12,COc1ccc(NC(=O)CCc2nc(-c3ccc(C)cc3)no2)c(OC)c1,inconclusive
13,COc1ccc(Cl)cc1N(C)C(=O)CCc1nc(-c2ccc(C)cc2)no1,inconclusive
14,COc1ccc(C(c2sc3nc(C)nn3c2O)N2CCC3(CC2)OCCO3)cc1 (centres undefined),inconclusive
15,CC(=O)Nc1cccc(C(=O)Oc2cccc(C)c2)c1O,active: 61%
16,Cn1c(=O)c2c(nc(NC3CCCCC3)n2CC(=O)C23CC4CC(CC(C4)C2)C3)n(C)c1=O,inconclusive
17,C#CC(C)(C)NC(=O)c1ccccc1OC,inconclusive
18,CC1=C(C(=O)Nc2cccnc2)C(c2ccncc2)n2nnnc2N1 (centres undefined),inconclusive
19,CCOCCCNc1nc(=S)[nH]c2cc(OC)c(OC)cc12,inconclusive
